{
  "source": "the supplement of paper PMC12067093",
  "about": "“Discovery and optimisation of a covalent ligand for TRIM25 and its application to targeted protein ubiquitination” (Chemical Science, 2025)",
  "note": "Some of the results follow.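 Also: competitive profiling in live THP-1 cells: cysteine peptides tagged with an iodoacetamide desthiobiotin (IA-DTB) probe, intensity after compound treatment relative to DMSO-treated cells.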",
  "data": [
    {"compound": "Cc1cc(ccc1-c1ccccc1)C(=O)N1CCCN(CC1)C(=O)CCl [compound 10]", "assay": "probe-labelled cysteine peptide fold change vs DMSO (competition) (log2 fold change); higher = less target engagement (more negative = stronger competition)", "details": "50 µM; THP-1; incubation time: 4 h", "values": [
      {"target": "CRELD2_Q6UXH1_31_KPTPCHR (UniProt Q6UXH1)", "probe-labelled cysteine peptide fold change": 0.0721},
      {"target": "CRYZL1_O95825_274_HDIITLLGVGGHWVTTEENLQLDPPDSHCLFLK (UniProt O95825)", "probe-labelled cysteine peptide fold change": 0.255},
      {"target": "CPOX_P36551_281_QWWFGGGCDLTPTYLNQEDAVHFHR (UniProt P36551)", "probe-labelled cysteine peptide fold change": 0.314},
      {"target": "CPNE1_Q99829_4+14_AHCVTLVQLSISCDHLIDK (UniProt Q99829)", "probe-labelled cysteine peptide fold change": -0.173},
      {"target": "CPSF1_Q10570_1102_IELQEWEHVTCMK (UniProt Q10570)", "probe-labelled cysteine peptide fold change": -0.201},
      {"target": "CRACR2A_Q9BSW2-2_494_CSEEEEVSDQGVQGQIPEAPPLK (UniProt Q9BSW2)", "probe-labelled cysteine peptide fold change": -0.0955},
      {"target": "CPVL_Q9H3G5_271_QCHECIEHIR (UniProt Q9H3G5)", "probe-labelled cysteine peptide fold change": 0.3},
      {"target": "CORO1B_Q9BR76_41_VTWDSTFCAVNPK (UniProt Q9BR76)", "probe-labelled cysteine peptide fold change": 0.0432},
      {"target": "CSK_P41240_290_SVLGGDCLLK (UniProt P41240)", "probe-labelled cysteine peptide fold change": -0.348},
      {"target": "CSDE1_O75534_42_LLTSYGFIQCSER (UniProt O75534)", "probe-labelled cysteine peptide fold change": -0.185},
      {"target": "CTNND1_O60716_533_HIEWESVLTNTAGCLR (UniProt O60716)", "probe-labelled cysteine peptide fold change": -0.0601},
      {"target": "CTNND1_O60716_394_SNAAAYLQHLCYR (UniProt O60716)", "probe-labelled cysteine peptide fold change": -0.0886},
      {"target": "CPOX_P36551_373_HCDDSFTPQEK (UniProt P36551)", "probe-labelled cysteine peptide fold change": 0.0439},
      {"target": "CPSF2_Q9P2I0_34_FLLDCGWDEHFSMDIIDSLRK (UniProt Q9P2I0)", "probe-labelled cysteine peptide fold change": 0.187},
      {"target": "CORO2A_Q92828_474_TWLTNGFDVFECPPPK (UniProt Q92828)", "probe-labelled cysteine peptide fold change": 0.219},
      {"target": "CPSF2_Q9P2I0_335_VVLASQPDLECGFSR (UniProt Q9P2I0)", "probe-labelled cysteine peptide fold change": 0.0765},
      {"target": "CRIP2_P52943_57_PCYATLFGPK (UniProt P52943)", "probe-labelled cysteine peptide fold change": -0.567},
      {"target": "CSDE1_O75534_464_EKEAEDGIIAYDDCGVK (UniProt O75534)", "probe-labelled cysteine peptide fold change": -0.691},
      {"target": "CRBN_Q96SW2_205_CQIFPSKPVSR (UniProt Q96SW2)", "probe-labelled cysteine peptide fold change": 0.15},
      {"target": "CSNK2B_P67870_109_YQQGDFGYCPR (UniProt P67870)", "probe-labelled cysteine peptide fold change": 0.0278},
      {"target": "CPS1_P31327_1256_GNDVLVIECNLR (UniProt P31327)", "probe-labelled cysteine peptide fold change": 0.0627},
      {"target": "CRELD2_Q6UXH1_288+294_EHGQCADVDECSLAEK (UniProt Q6UXH1)", "probe-labelled cysteine peptide fold change": -0.479},
      {"target": "CPSF2_Q9P2I0_187_EIHLNGCSLEMLSRPSLLITDSFNATYVQPR (UniProt Q9P2I0)", "probe-labelled cysteine peptide fold change": -0.411},
      {"target": "CPSF1_Q10570_532_SIRPQVVTTFELPGCYDMWTVIAPVR (UniProt Q10570)", "probe-labelled cysteine peptide fold change": 0.105}
    ]}
  ]
}
